Measurements reported in PubChem BioAssay AID1053208 (Peter MacCallum Cancer Centre, 2014)
Here is a random part of about 17,000 deposited reagents. 788 of all reagents (4.7%) count as active. 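Calls rest on z-score classes alone; an extra cut-off of viability at most 70% of control was not applied to them.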 Not all columns of the deposit are shown. No sequences are given here.

Test: 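Find knock-downs that sensitise mouse osteosarcoma cells to doxorubicin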 (primary screen)
System: mouse osteosarcoma cells, early-passage culture from an engineered mouse model of fibroblastic bone tumour
Knock-down reagent: siRNA pool against mouse genes, 40 nM
Timing: about 120 h (48 h before drug, then 72 h with drug)
Conditions: doxorubicin 100 nM for 72 h, roughly 30-40% inhibitory dose
Measurement: 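Viability read as ATP luminescence after 72 h of 100 nM doxorubicin or none, duplicate wells averaged, scaled to non-targeting siRNA, then expressed as robust z-scores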
Scale: viability z-score with doxorubicin: higher = more viable cells under doxorubicin; viability z-score without drug: higher = more viable cells with knock-down alone
Rule for the call: 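Called active if knock-down leaves viability unchanged without drug (z within -2 to 2) but lowers it with doxorubicin (z at or under -2)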

What did the screen give for Sparc (secreted acidic cysteine rich glycoprotein)?
combined z-score class: no change with or without drug; viability z-score with doxorubicin: 0.45; viability z-score without drug: -1.52; call: inactive

What is on record for Pdhx (pyruvate dehydrogenase complex, component X)?
combined z-score class: no change with or without drug; viability z-score with doxorubicin: 0.45; viability z-score without drug: 0; call: inactive

Which result is listed for Ccdc122 (coiled-coil domain containing 122)?
combined z-score class: no change with or without drug; viability z-score with doxorubicin: -1.35; viability z-score without drug: 1.85; call: inactive

With Srpx (sushi-repeat-containing protein), how do the results read?
combined z-score class: no change with or without drug; viability z-score with doxorubicin: -0.67; viability z-score without drug: 1.18; call: inactive

How did the screen score Akap4 (A kinase anchor protein 4)?
combined z-score class: no change with or without drug; viability z-score with doxorubicin: 0.9; viability z-score without drug: -0.34; call: inactive

What is on record for Zcchc12 (zinc finger, CCHC domain containing 12)?
combined z-score class: high cell count with doxorubicin only; viability z-score with doxorubicin: 2.47; viability z-score without drug: 1.18; call: inactive

For Ncald (neurocalcin delta), what does the deposit list?
combined z-score class: low cell count with doxorubicin only; viability z-score with doxorubicin: -2.7; viability z-score without drug: -1.69; call: active

With Qdpr (quinoid dihydropteridine reductase), what does the deposit list?
combined z-score class: no change with or without drug; viability z-score with doxorubicin: 0.22; viability z-score without drug: 0.84; call: inactive

For Ccdc157 (coiled-coil domain containing 157), what was measured?
combined z-score class: no change with or without drug; viability z-score with doxorubicin: 0.11; viability z-score without drug: -0.17; call: inactive

With Mrgpra1 (MAS-related GPR, member A1), what was measured?
combined z-score class: no change with or without drug; viability z-score with doxorubicin: 0; viability z-score without drug: 0.51; call: inactive

With Usp27x (ubiquitin specific peptidase 27, X chromosome), how do the results read?
combined z-score class: low cell count with doxorubicin only; viability z-score with doxorubicin: -3.37; viability z-score without drug: -0.51; call: active

What did the screen give for Ski (ski proto-oncogene)?
combined z-score class: no change with or without drug; viability z-score with doxorubicin: -1.8; viability z-score without drug: -0.84; call: inactive

With Hira (histone cell cycle regulator), what does the deposit list?
combined z-score class: no change with or without drug; viability z-score with doxorubicin: 0.79; viability z-score without drug: 1.01; call: inactive

What is on record for Sult1d1 (sulfotransferase family 1D, member 1)?
combined z-score class: no change with or without drug; viability z-score with doxorubicin: -0.45; viability z-score without drug: -0.17; call: inactive

For Tmod1 (tropomodulin 1), how do the results read?
combined z-score class: high cell count with and without drug; viability z-score with doxorubicin: 2.59; viability z-score without drug: 3.54; call: inactive

For Vip (vasoactive intestinal polypeptide), what was measured?
combined z-score class: no change with or without drug; viability z-score with doxorubicin: -1.46; viability z-score without drug: 0.17; call: inactive

For Ptpn1 (protein tyrosine phosphatase, non-receptor type 1), how do the results read?
combined z-score class: no change with or without drug; viability z-score with doxorubicin: 0.67; viability z-score without drug: 0.17; call: inactive

For Rsad2 (radical S-adenosyl methionine domain containing 2), how do the results read?
combined z-score class: no change with or without drug; viability z-score with doxorubicin: -0.11; viability z-score without drug: -1.18; call: inactive

For Or6b2 (olfactory receptor family 6 subfamily B member 2), how do the results read?
combined z-score class: no change with or without drug; viability z-score with doxorubicin: 0.56; viability z-score without drug: -0.84; call: inactive

With Mtnr1a (melatonin receptor 1A), how do the results read?
combined z-score class: no change with or without drug; viability z-score with doxorubicin: 1.57; viability z-score without drug: -1.18; call: inactive

With Phykpl (5-phosphohydroxy-L-lysine phospholyase), how do the results read?
combined z-score class: no change with or without drug; viability z-score with doxorubicin: -0.22; viability z-score without drug: 1.01; call: inactive

For Mx2 (MX dynamin-like GTPase 2), what was measured?
combined z-score class: no change with or without drug; viability z-score with doxorubicin: 0; viability z-score without drug: -0.51; call: inactive

For Sh3tc2 (SH3 domain and tetratricopeptide repeats 2), how do the results read?
combined z-score class: no change with or without drug; viability z-score with doxorubicin: -1.12; viability z-score without drug: 0.51; call: inactive

Which result is listed for Il18r1 (interleukin 18 receptor 1)?
combined z-score class: no change with or without drug; viability z-score with doxorubicin: 0.34; viability z-score without drug: -1.18; call: inactive

For Vapb, what was measured?
combined z-score class: no change with or without drug; viability z-score with doxorubicin: -0.9; viability z-score without drug: 0; call: inactive

What is on record for Slc39a10?
combined z-score class: no change with or without drug; viability z-score with doxorubicin: -0.45; viability z-score without drug: 0; call: inactive

With Htr2b (5-hydroxytryptamine (serotonin) receptor 2B), how do the results read?
combined z-score class: high cell count with doxorubicin only; viability z-score with doxorubicin: 2.02; viability z-score without drug: 0.17; call: inactive

With Alg8 (ALG8 alpha-1,3-glucosyltransferase), how do the results read?
combined z-score class: no change with or without drug; viability z-score with doxorubicin: 0; viability z-score without drug: -0.17; call: inactive

An excerpt from above, reduced to “combined z-score class”.
Vip (vasoactive intestinal polypeptide): no change with or without drug
Ptpn1 (protein tyrosine phosphatase, non-receptor type 1): no change with or without drug
Rsad2 (radical S-adenosyl methionine domain containing 2): no change with or without drug
Or6b2 (olfactory receptor family 6 subfamily B member 2): no change with or without drug
